# Measurements from PubChem BioAssay AID248 (DTP/NCI, 2004).
# The list shows only some results of the screen, not a fair sample: it is rich in T/C values a quarter to a half above the control, in often repeated tests (any T/C) and in doses without a T/C. Further doses and runs are listed elsewhere. T/C gives the treated animals as a percentage of the vehicle group. Some entries give survivors of the animals treated and no T/C: the source holds a T/C of zero for them, seemingly a mark for toxic or unscored doses. Some survivor counts are full or nearly so, which does not show that the dose was tolerated: survival well below the control is almost never listed, so the zero probably covers shortened survival too. Survivors were counted at the toxicity check, usually on the fifth day, unless a day is given; later deaths do not show. Schedules are NCI's codes, read here as Q, the interval in days (D) or hours (H), X, the number of doses. Where survival is the endpoint, the PubChem record calls one and a half times the control and up active, and a quarter to a half above the control has no call in these data; cut-offs in other NCI protocols can differ. Some T/C values are followed by the survivors on the day toxicity was checked, most often the fifth; where none is given, no animal had died by that day.
# Test system: L1210 leukemia ip in BDF1 mice, survival T/C
# Assay: NCI In Vivo Anticancer Drug Screen. Data for tumor model L1210 Leukemia (intraperitoneal) in B6D2F1 (BDF1) mice
# Conditions: higher T/C = longer survival
# [1] = T/C endpoint: mean survival time, dose: 400.0 mg/kg/injection, schedule: Q04DX003 (ip), vehicle: saline with Tween-80
# [2] = T/C endpoint: mean survival time, dose: 100.0 mg/kg/injection, schedule: Q01DX009 (ip), vehicle: Klucel (hydroxypropylcellulose) (HPC)
# [3] = T/C endpoint: mean survival time, dose: 400.0 mg/kg/injection, schedule: Q01DX009 (ip), vehicle: Klucel (hydroxypropylcellulose) (HPC)
# [4] = T/C endpoint: mean survival time, dose: 200.0 mg/kg/injection, schedule: Q01DX001 (ip), vehicle: carboxymethylcellulose (CMC)
# [5] = T/C endpoint: mean survival time, dose: 400.0 mg/kg/injection, schedule: Q01DX001 (ip), vehicle: carboxymethylcellulose (CMC)
# [6] = T/C endpoint: mean survival time, dose: 400.0 mg/kg/injection, schedule: Q04DX002 (ip), vehicle: saline
# [7] = T/C endpoint: mean survival time, dose: 100.0 mg/kg/injection, schedule: Q01DX001 (ip), vehicle: carboxymethylcellulose (CMC)
# [8] = T/C endpoint: mean survival time, dose: 400.0 mg/kg/injection, schedule: Q04DX003 (ip), vehicle: saline
smiles,measurement,setting,value
Cc1cc(NCCCCCCNc2cc(C)nc3ccc(N)cc23)c2cc(N)ccc2n1,T/C,"T/C endpoint: mean survival time, dose: 9.3 mg/kg/injection, schedule: Q01DX009 (ip), vehicle: saline with Tween-80",135 % of control
same,T/C,"T/C endpoint: mean survival time, dose: 18.0 mg/kg/injection, schedule: Q01DX009 (ip), vehicle: saline",131 % of control
same,T/C,"T/C endpoint: mean survival time, dose: 24.75 mg/kg/injection, schedule: Q01DX009 (ip), vehicle: saline",127 % of control
same,T/C,"T/C endpoint: mean survival time, dose: 37.5 mg/kg/injection, schedule: Q01DX009 (ip), vehicle: acetone",134 % of control [5 of 6 alive]
same,survivor count,"T/C endpoint: mean survival time, dose: 150.0 mg/kg/injection, schedule: Q01DX009 (ip), vehicle: saline",4 of 6
same,T/C,"T/C endpoint: mean survival time, dose: 266.0 mg/kg/injection, schedule: Q04DX003 (ip), vehicle: Klucel (hydroxypropylcellulose) (HPC)",147 % of control [4 of 6 alive]
same,survivor count,"T/C endpoint: mean survival time, dose: 300.0 mg/kg/injection, schedule: Q01DX009 (ip), vehicle: acetone",5 of 6
same,survivor count,"T/C endpoint: mean survival time, dose: 300.0 mg/kg/injection, schedule: Q01DX009 (ip), vehicle: saline",4 of 6
same,survivor count,[1],6 of 6
same,survivor count,"T/C endpoint: median survival time, dose: 2.0 mg/kg/injection, schedule: Q01DX001 (ip), vehicle: citric acid",5 of 8
same,survivor count,"T/C endpoint: median survival time, dose: 4.0 mg/kg/injection, schedule: Q01DX001 (ip), vehicle: citric acid",5 of 8
same,survivor count,"T/C endpoint: median survival time, dose: 8.0 mg/kg/injection, schedule: Q01DX001 (ip), vehicle: citric acid",3 of 8
same,survivor count,"T/C endpoint: median survival time, dose: 16.0 mg/kg/injection, schedule: Q01DX001 (ip), vehicle: citric acid",5 of 8
same,survivor count,"T/C endpoint: median survival time, dose: 32.0 mg/kg/injection, schedule: Q01DX001 (ip), vehicle: citric acid",0 of 8
same,survivor count,"T/C endpoint: median survival time, dose: 64.0 mg/kg/injection, schedule: Q01DX001 (ip), vehicle: citric acid",0 of 8
same,survivor count,"T/C endpoint: median survival time, dose: 64.0 mg/kg/injection, schedule: Q01DX001 (ip), vehicle: lactic acid",2 of 8
same,survivor count,"T/C endpoint: median survival time, dose: 128.0 mg/kg/injection, schedule: Q01DX001 (ip), vehicle: lactic acid",0 of 8
same,survivor count,"T/C endpoint: median survival time, dose: 512.0 mg/kg/injection, schedule: Q01DX001 (oral), vehicle: citric acid",3 of 8
same,survivor count,"T/C endpoint: median survival time, dose: 512.0 mg/kg/injection, schedule: Q01DX001 (oral), vehicle: lactic acid",5 of 8
COc1ccccc1N=NN(C)C,survivor count,"T/C endpoint: mean survival time, dose: 12.0 mg/kg/injection, schedule: Q01DX009 (ip), vehicle: Klucel (hydroxypropylcellulose) (HPC)",3 of 6
same,survivor count,"T/C endpoint: mean survival time, dose: 12.5 mg/kg/injection, schedule: Q01DX009 (ip), vehicle: Klucel (hydroxypropylcellulose) (HPC)",6 of 6
same,survivor count,"T/C endpoint: mean survival time, dose: 25.0 mg/kg/injection, schedule: Q01DX009 (ip), vehicle: Klucel (hydroxypropylcellulose) (HPC)",0 of 6
same,survivor count,"T/C endpoint: mean survival time, dose: 25.0 mg/kg/injection, schedule: Q04DX003 (ip), vehicle: Klucel (hydroxypropylcellulose) (HPC)",6 of 6
same,survivor count,"T/C endpoint: mean survival time, dose: 50.0 mg/kg/injection, schedule: Q01DX009 (ip), vehicle: Klucel (hydroxypropylcellulose) (HPC)",0 of 6
same,survivor count,[2],0 of 6
same,survivor count,"T/C endpoint: mean survival time, dose: 200.0 mg/kg/injection, schedule: Q01DX009 (ip), vehicle: Klucel (hydroxypropylcellulose) (HPC)",0 of 6
same,survivor count,[3],0 of 6
C/C=C1/C[C@@H](C)[C@@](C)(O)C(=O)OCC2=CCN3CC[C@@H](OC1=O)[C@@H]23,survivor count,[4],1 of 6
same,survivor count,[5],0 of 6
O=C1C2CCN(CC2)C1Cc1ccccc1 (stereo not given),survivor count,[6],0 of 3
CC(C)CC(CC(C)C)NCCO,survivor count,"T/C endpoint: mean survival time, dose: 150.0 mg/kg/injection, schedule: Q01DX001 (ip), vehicle: acid diluted with saline",2 of 6
same,survivor count,"T/C endpoint: mean survival time, dose: 300.0 mg/kg/injection, schedule: Q01DX001 (ip), vehicle: acid diluted with saline",0 of 6
CCCCNC(C)(C)CSSSCC(C)(C)NCCCC,survivor count,"T/C endpoint: mean survival time, dose: 100.0 mg/kg/injection, schedule: Q04DX003 (ip), vehicle: other",6 of 6
same,survivor count,"T/C endpoint: mean survival time, dose: 200.0 mg/kg/injection, schedule: Q01DX009 (ip), vehicle: other",1 of 6
same,survivor count,"T/C endpoint: mean survival time, dose: 200.0 mg/kg/injection, schedule: Q04DX003 (ip), vehicle: other",2 of 6
same,survivor count,"T/C endpoint: mean survival time, dose: 400.0 mg/kg/injection, schedule: Q04DX003 (ip), vehicle: other",0 of 6
CC(=O)NCc1ccc([N+](=O)[O-])cc1,survivor count,"T/C endpoint: mean survival time, dose: 400.0 mg/kg/injection, schedule: Q01DX009 (ip), vehicle: saline with Tween-80",2 of 6
O=C(Nc1ccccc1F)c1ccc(Cl)c(Cl)c1,survivor count,[2],6 of 6
O=C(O)CNCCN1CC(=O)N(Cc2ccccc2)C1=S,survivor count,"T/C endpoint: mean survival time, dose: 400.0 mg/kg/injection, schedule: Q04DX003 (ip), vehicle: carboxymethylcellulose (CMC)",5 of 6
COC(=O)CC1OCC=C2CN3CCC45C6=CC(=O)C(=O)C([N+](=O)[O-])=C6NC4C1C2CC35 (stereo not given),survivor count,"T/C endpoint: mean survival time, dose: 20.0 mg/kg/injection, schedule: Q01DX001 (ip), vehicle: saline",1 of 6
same,survivor count,"T/C endpoint: mean survival time, dose: 40.0 mg/kg/injection, schedule: Q01DX001 (ip), vehicle: saline",0 of 6
same,survivor count,"T/C endpoint: mean survival time, dose: 80.0 mg/kg/injection, schedule: Q01DX001 (ip), vehicle: saline",0 of 6
C=CP(c1ccccc1)c1ccccc1,survivor count,"T/C endpoint: mean survival time, dose: 400.0 mg/kg/injection, schedule: Q01DX009 (ip), vehicle: saline sonified",1 of 6
CC(N)c1ccccc1 (stereo not given),survivor count,"T/C endpoint: mean survival time, dose: 400.0 mg/kg/injection, schedule: Q01DX001 (ip), vehicle: saline with Tween-80",2 of 6
Cn1cncc1CC1COC(=O)C1C(O)c1ccccc1 (stereo not given),survivor count,"T/C endpoint: mean survival time, dose: 400.0 mg/kg/injection, schedule: Q01DX001 (ip), vehicle: saline",2 of 6
Cc1cc(C)c2ccc([S+](C)C)c-2c(C)c1,survivor count,[7],0 of 4
same,survivor count,[4],0 of 4
same,survivor count,[5],0 of 4
Oc1ccc(/C=N\Nc2ccccn2)c(O)c1,survivor count,[3],1 of 6
C=CCNC(=O)C1C2C=CC(C2)C1C(=O)NCC=C (stereo not given),survivor count,[1],0 of 3
CCOC1OC(C2COC(=O)O2)C(O)C1O (stereo not given),T/C,[6],127 % of control
c1ccc2sc(SSN3CCOCC3)nc2c1,survivor count,[8],3 of 6
CCOC(=O)c1ccc(NC(=O)N(CCCl)N=O)cc1,T/C,"T/C endpoint: mean survival time, dose: 3.0 mg/kg/injection, schedule: Q01DX001 (ip), vehicle: carboxymethylcellulose (CMC)",126 % of control
same,T/C,"T/C endpoint: mean survival time, dose: 4.0 mg/kg/injection, schedule: Q01DX001 (ip), vehicle: carboxymethylcellulose (CMC)",134 % of control
same,T/C,"T/C endpoint: mean survival time, dose: 6.0 mg/kg/injection, schedule: Q01DX001 (ip), vehicle: carboxymethylcellulose (CMC)",146 % of control
same,survivor count,"T/C endpoint: mean survival time, dose: 37.5 mg/kg/injection, schedule: Q01DX001 (ip), vehicle: carboxymethylcellulose (CMC)",2 of 6
same,survivor count,"T/C endpoint: mean survival time, dose: 50.0 mg/kg/injection, schedule: Q01DX001 (ip), vehicle: carboxymethylcellulose (CMC)",6 of 6
same,survivor count,[7],3 of 6
same,survivor count,[4],4 of 6
same,survivor count,"T/C endpoint: mean survival time, dose: 300.0 mg/kg/injection, schedule: Q01DX001 (ip), vehicle: carboxymethylcellulose (CMC)",0 of 6
same,survivor count,[5],0 of 6
same,survivor count,"T/C endpoint: mean survival time, dose: 500.0 mg/kg/injection, schedule: Q01DX001 (ip), vehicle: carboxymethylcellulose (CMC)",0 of 6
same,survivor count,"T/C endpoint: mean survival time, dose: 600.0 mg/kg/injection, schedule: Q01DX001 (ip), vehicle: carboxymethylcellulose (CMC)",0 of 6
same,survivor count,"T/C endpoint: mean survival time, dose: 800.0 mg/kg/injection, schedule: Q01DX001 (ip), vehicle: carboxymethylcellulose (CMC)",0 of 6
same,survivor count,"T/C endpoint: mean survival time, dose: 1000.0 mg/kg/injection, schedule: Q01DX001 (ip), vehicle: carboxymethylcellulose (CMC)",0 of 6
CCN(CC)Cc1c(C)[nH]c2ccc(N(C)C)cc2c1=O,survivor count,[8],0 of 6
CP1(=O)CC2OC23CCCCC31 (stereo not given),T/C,"T/C endpoint: mean survival time, dose: 50.0 mg/kg/injection, schedule: Q01DX009 (ip), vehicle: other",132 % of control
O=C1NC2C=CC1/C=C\C=C/2 (stereo not given),survivor count,[6],0 of 3
O=S(O)O,survivor count,"T/C endpoint: mean survival time, dose: 800.0 mg/kg/injection, schedule: Q01DX001 (ip), vehicle: saline",0 of 6
same,survivor count,"T/C endpoint: mean survival time, dose: 800.0 mg/kg/injection, schedule: Q01DX009 (ip), vehicle: saline",0 of 6
